Results are given in words; binding and its absence hold for the method and conditions named. Binding calls can cover weak binding; strength is not graded here. Where a sequence is shown, tags or fusion partners need not be part of it.
Target: T1, GAL4 BD-Myc-NleE (enteropathogenic E. coli (EPEC 2348/69)) (UniProt B7UI22)
T1 sequence: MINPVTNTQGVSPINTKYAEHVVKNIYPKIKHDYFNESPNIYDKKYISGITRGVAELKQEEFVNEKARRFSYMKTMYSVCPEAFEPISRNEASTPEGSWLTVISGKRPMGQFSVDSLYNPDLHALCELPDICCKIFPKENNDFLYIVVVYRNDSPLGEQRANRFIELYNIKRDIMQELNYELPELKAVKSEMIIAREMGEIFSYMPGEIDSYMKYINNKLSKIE
Test: two-hybrid; yeast strain AH109 transformed with plasmid combinations (bait+prey): GAL4 BD-Myc-NleE with GAL4 AD-fused TAB3 truncations

## TAB3ΔNZF (GAL4 AD fusion) (human) (domain or fragment)
  binding: binds

From publication PMC4239114
